Measured values reported in patent US7956188B2, “Acetamide compounds as fungicides” (Syngenta Crop Protection, Inc., priority 2004, dated 2011).
Some entries share one result that the patent states for a list of compounds.

Columns and labels:
[1] = system: Septoria tritici; test: Septoria tritici (leaf blotch) growth inhibition in nutrient broth, microtiter plate; type: cell-based; conditions: 200 ppm; PDB broth, 24 C, inhibition of growth determined photometrically after 72 hrs
[2] = system: Plasmopara viticola; test: leaf disk assay, Plasmopara viticola (downy mildew of grapevine); type: in vivo; conditions: 200 ppm; grapevine leaf disks, preventive, assessed seven days after inoculation
[3] = system: Pythium ultimum; test: Pythium ultimum (Damping off) growth inhibition in potato dextrose broth, microtiter plate; type: cell-based; conditions: 20 ppm, 24° C., inhibition of growth determined photometrically after 48 hours
[4] = system: Erysiphe graminis f.sp. hordei; test: leaf disk assay, Erysiphe graminis f.sp. hordei (barley powdery mildew); type: in vivo; conditions: 200 ppm; barley leaf segments, preventive, assessed four days after inoculation

With `CSC(Oc1ccc2ncc(Br)cc2c1)C(=O)NC(C)C(F)(F)F` (mixture of isomers) [237 (57)] the “control of fungal infection” value [1] was at least 60%.
For `CSC(Oc1ccc2ccsc2c1)C(=O)NC(C)(C)C` (centres unmarked) [12 (83A)], the “control of fungal infection” value [1] was at least 60%.
With `CSC(Oc1ccc2sccc2c1)C(=O)NC(C)(C)C` (centres unmarked) [12 (47)] the “control of fungal infection” value [2] was at least 60%, the “control of fungal infection” value [1] was at least 60% and the “control of fungal infection” value [3] was at least 60%.
`CSC(Oc1ccc2nc(Cl)sc2c1)C(=O)NC(C)(C)C` (centres unmarked) [12 (81)] was tested, and the “control of fungal infection” value [2] was at least 60% and the “control of fungal infection” value [3] was at least 60%.
With `CSCC(C)(C)NC(=O)C(Oc1cc(Br)c2ncc(Br)cc2c1)SC` (racemic) [50 (61)] the “control of fungal infection” value [1] was at least 60%.
`COc1ccc(CCC(C)(C#N)NC(=O)C(Oc2ccc3ncc(Br)cc3c2)SC)cc1` (centres unmarked) [228 (57)] was tested, and the “control of fungal infection” value [1] was at least 60%.
In the case of `COCC(C)(C#N)NC(=O)C(Oc1cc(Br)c2ncc(Br)cc2c1)SC` (mixture of isomers) [52 (61)], the “control of fungal infection” value [2] is reported as at least 60%, the “control of fungal infection” value [4] is reported as at least 60% and the “control of fungal infection” value [1] is reported as at least 60%.
For `COCC(C)(C#N)NC(=O)C(Oc1cc(F)c2ncc(Br)cc2c1)SC` (centres unmarked) [52 (62B)], the “control of fungal infection” value [1] was at least 60% and the “control of fungal infection” value [3] was at least 60%.
For `CSC(Oc1ccc2nc(Cl)sc2c1)C(=O)NC(C)(C)c1ccccc1` (centres unmarked) [189 (81)], the “control of fungal infection” value [2] was at least 60% and the “control of fungal infection” value [3] was at least 60%.
`CSC(Oc1cc(I)c2ncc(Br)cc2c1)C(=O)NC(C)(C)C` (centres unmarked) [12 (62A), 2-(3-bromo-8-iodo-quinolin-6-yloxy)-N-tert-butyl-2-methylsulfanyl-acetamide] was tested, and the “control of fungal infection” value [1] was at least 60%.
In the case of `CSC(Oc1ccc2ncc(Br)cc2c1)C(=O)NC(C)(C#N)Cc1ccc(F)cc1` (centres unmarked) [226 (57)], the “control of fungal infection” value [2] is reported as at least 60% and the “control of fungal infection” value [1] is reported as at least 60%.
With `CSC(Oc1ccc2nc(Cl)sc2c1)C(=O)Nc1ccc(F)cc1` (centres unmarked) [133 (81)] the “control of fungal infection” value [2] was at least 60%, the “control of fungal infection” value [4] was at least 60% and the “control of fungal infection” value [3] was at least 60%.
`CSC(Oc1ccc2ncc(Br)cc2c1)C(=O)NC(C)(C#N)CC(C)C` (centres unmarked) [230 (57)] was tested, and the “control of fungal infection” value [2] was at least 60% and the “control of fungal infection” value [1] was at least 60%.
For `CSC(Oc1ccc2c(c1)CCC2)C(=O)NC(C)(C)C` (centres unmarked) [12 (36)], the “control of fungal infection” value [2] was at least 60%, the “control of fungal infection” value [1] was at least 60% and the “control of fungal infection” value [3] was at least 60%.
In the case of `CSC(Oc1cc(Cl)c2ncc(Br)cc2c1)C(=O)NC(C)(C)C` (centres unmarked) [12 (62), 2-(3-bromo-8-chloro-quinolin-6-yloxy)-N-tert-butyl-2-methylsulfanyl-acetamide], the “control of fungal infection” value [2] is reported as at least 60%, the “control of fungal infection” value [1] is reported as at least 60% and the “control of fungal infection” value [3] is reported as at least 60%.
`CSC(Oc1cc(C)c(C)c(C)c1)C(=O)NC(C)(C)C` (centres unmarked) [12 (13), 2-(3,4,5-trimethylphenoxy)-2-methylthio-N-(2-methyl-prop-2-yl)acetamide] was tested, and the “control of fungal infection” value [2] was at least 60%, the “control of fungal infection” value [4] was at least 60% and the “control of fungal infection” value [3] was at least 60%.
With `COCC(C)(C#N)NC(=O)C(Oc1ccc2oc3ccc(Cl)cc3c2c1)SC` (centres unmarked) [52 (52)] the “control of fungal infection” value [1] was at least 60%.
For `CCC(C)(C)NC(=O)C(Oc1cc(C)c2ncc(Br)cc2c1)SC` (centres unmarked) [16 (72)], the “control of fungal infection” value [1] was at least 60% and the “control of fungal infection” value [3] was at least 60%.
`CSC(Oc1ccc2c(c1)CCCC2)C(=O)NC(C)(C)C` (racemic) [12 (55)] was tested, and the “control of fungal infection” value [2] was at least 60%, the “control of fungal infection” value [1] was at least 60% and the “control of fungal infection” value [3] was at least 60%.
For `CSC(Oc1cc(C)c2ncc(I)cc2c1)C(=O)NC(C)(C)C` (centres unmarked) [12 (72A), N-tert-Butyl-2-(3-iodo-8-methyl-quinolin-6-yloxy)-2-methylsulfanyl-acetamide], the “control of fungal infection” value [2] was at least 60% and the “control of fungal infection” value [1] was at least 60%.
For `CSC(Oc1cc(F)c2ncc(Br)cc2c1)C(=O)NC(C)(C)C` (centres unmarked) [12 (62B), 2-(3-Bromo-8-fluoro-quinolin-6-yloxy)-N-tert-butyl-2-methylsulfanyl-acetamide], the “control of fungal infection” value [2] was at least 60%, the “control of fungal infection” value [1] was at least 60% and the “control of fungal infection” value [3] was at least 60%.
In the case of `CSC(Oc1cc(C)c(Br)c(C)c1)C(=O)NC(C)(C)C` (centres unmarked) [12 (15), 2-(4-bromo-3,5-dimethylphenoxy)-2-methylthio-N-(2-methyl-prop-2-yl)acetamide], the “control of fungal infection” value [2] is reported as at least 60%, the “control of fungal infection” value [4] is reported as at least 60% and the “control of fungal infection” value [3] is reported as at least 60%.
With `CSC(Oc1ccc2ncc(Br)cc2c1)C(=O)NC(C)(C)CO[Si](C)(C)C(C)(C)C` (centres unmarked) [65 (57), 2-(3-bromoquinolinyl-6-oxy)-2-(methylthio)-N-(1-(tert.butyldimethylsilyloxy)-2-methylprop-2-yl) acetamide] the “control of fungal infection” value [4] was at least 60% and the “control of fungal infection” value [3] was at least 60%.
In the case of `CSC(Oc1ccc2ccoc2c1)C(=O)NC(C)(C)C` (centres unmarked) [12 (83B)], the “control of fungal infection” value [1] is reported as at least 60% and the “control of fungal infection” value [3] is reported as at least 60%.
`CSC(Oc1ccc2ncc(Br)cc2c1)C(=O)NC(C)(C)C(F)(F)F` (centres unmarked) [27 (57)] was tested, and the “control of fungal infection” value [4] was at least 60% and the “control of fungal infection” value [3] was at least 60%.
